Data taken from patent US20100021918A1, “METHOD FOR ASSAYING ACTION OF ANTITUMOR AGENT USING SPLICING DEFECTS AS INDEX” (Eisai R&D Management Co., Ltd., priority 2007, published 2010).
Further values from the same series stand in other lists.

Tested on: peripheral blood mononuclear cells (PBMC)
Test: Microarray analysis (3), dose-dependent intron expression in PBMC at 3, 10, 30 nM, Table 5
Format: cell-based, human
Method: PBMC was suspended in RPMI1640 medium (containing 10% FBS, penicillin, and streptomycin) to 5×10^6 cells/ml and 1 ml of the suspension was plated per well of a 24-well plate. Immediately, 111 μl of 10 times-concentrated (8E,12E,14E)-7-((4-cycloheptylpiperazin-1-yl)carbonyl)oxy-3,6,16,21-tetrahydroxy-6,10,12,16,20-pentamethyl-18,19-epoxytricosa-8,12,14-trien-11-olide was added to the well (six wells per each concentration tested). The cells were then cultured in an incubator with 5% carbon dioxide gas at 37° C. Three hours later, the supernatant was collected and centrifuged at 1500 rpm for five minutes. TRI reagent (SIGMA) (1 ml) was added to each well of the plate from which the supernatant was removed to harvest the cells, which was added to the centrifuged pellet to dissolve. RNA was purified in accordance with the protocol of TRI reagent. RNA was further purified using RNeasy (QIAGEN) and, in accordance with the protocol, DNaseI was added to the samples during the procedure. Absorbance at 260 nm was measured to quantify an amount of RNA.
Ribosomal RNA was removed from 1 μg of each total RNA of control cells (n=3) and cells with the treatment (n=3) using RiboMinus Human/Mouse Transcriptome Isolation Kit (Invitrogen). Single stranded cDNA synthesis, double stranded cDNA synthesis, cRNA synthesis, second single stranded cDNA synthesis, cDNA fragmentation, and cDNA labeling in order were carried out for total RNA from which ribosomal RNA was removed, using GeneChip Whole Transcript Sense Target Labeling and Control Reagents (Affymetrix) to make a cDNA probe. Subsequently, the cDNA probe was used for hybridization with Human Exon 1.0 ST Array (Affymetrix). The array was washed and stained, and luminescence intensity was measured by a scanner.
The expression level of the probe set and the gene was quantified by using Expression Console Ver. 1.0 (Affymetrix) with Summarization Method and Normalization Method being set to “Median polish as used in RMA” and “None”, respectively. The expression level of the probe was normalized with that of the gene.
Probe sets showing that the normalized change in the level expression of the probe set in the group with the treatment at 30 nM was more than 5 times; the expression level of the probe set and the gene in the group with the treatment at 30 nM was more than 100; and probe set annotation was “extended, full, free”, were picked out. Regression analysis was performed with the probe sets extracted for the control group, the group with the treatment at 3 nM, the group with the treatment at 10 nM, and the group with the treatment at 30 nM to determine a p and q value for the slope of regression formula. A gene containing the probe sets with the q value of less than 5% was determined as a candidate gene with increased expression level of the intron regions (Table 5).
In Table 5, for the gene evaluated, gene name (Gene Name), abbreviated name (Gene Symbol), accession number (Accession), alias name (Synonym), transcription cluster number in Human Exon 1.0 ST Array (Human Exon 1.0 ST Array Transcription Cluster ID), chromosome number (Chromosome), type of strand (Strand), start region (Start), stop region (Stop), and change in expression level per 1 nM (Fold Change/nM) were respectively shown.

Q: Which “Fold Change/nM” value (introns of gene FLJ12529, regression over control, 3, 10, 30 nM) does the source give for `CCC(O)C(C)C1OC1CC(C)(O)/C=C/C=C(\C)C1OC(=O)CC(O)CCC(C)(O)C(OC(=O)N2CCN(C3CCCCCC3)CC2)/C=C/C1C` (centres unmarked) [E7107, (8E,12E,14E)-7-((4-cycloheptylpiperazin-1-yl)carbonyl)oxy-3,6,16,21-tetrahydroxy-6,10,12,16,20-pentamethyl-18,19-epoxytricosa-8,12,14-trien-11-olide] here?
A: 1.04 nM⁻¹

Q: What about the “Fold Change/nM” value (introns of gene FLJ21438, regression over control, 3, 10, 30 nM) of the same compound?
A: 1.04 nM⁻¹

Q: And the “Fold Change/nM” value (introns of gene FNDC3B, regression over control, 3, 10, 30 nM)?
A: 1.06 nM⁻¹

Q: What about the “Fold Change/nM” value (introns of gene FOSB, regression over control, 3, 10, 30 nM) of the same compound?
A: 1.04 nM⁻¹

Q: And the “Fold Change/nM” value (introns of gene FOXO1A, regression over control, 3, 10, 30 nM)?
A: 1.04 nM⁻¹

Q: And the “Fold Change/nM” value (introns of gene FUS, regression over control, 3, 10, 30 nM)?
A: 1.04 nM⁻¹

Q: And the “Fold Change/nM” value (introns of gene GAB2, regression over control, 3, 10, 30 nM)?
A: 1.07 nM⁻¹

Q: What about the “Fold Change/nM” value (introns of gene GCC2, regression over control, 3, 10, 30 nM) of the same compound?
A: 1.06 nM⁻¹

Q: What about the “Fold Change/nM” value (introns of gene GNL2, regression over control, 3, 10, 30 nM) of the same compound?
A: 1.06 nM⁻¹

Q: And the “Fold Change/nM” value (introns of gene GPIAP1, regression over control, 3, 10, 30 nM)?
A: 1.04 nM⁻¹

Q: And the “Fold Change/nM” value (introns of gene GRASP, regression over control, 3, 10, 30 nM)?
A: 1.04 nM⁻¹

Q: What about the “Fold Change/nM” value (introns of gene GRB2, regression over control, 3, 10, 30 nM) of the same compound?
A: 1.06 nM⁻¹

Q: And the “Fold Change/nM” value (introns of gene GTPBP2, regression over control, 3, 10, 30 nM)?
A: 1.04 nM⁻¹

Q: What about the “Fold Change/nM” value (introns of gene HERC1, regression over control, 3, 10, 30 nM) of the same compound?
A: 1.04 nM⁻¹

Q: And the “Fold Change/nM” value (introns of gene HERPUD1, regression over control, 3, 10, 30 nM)?
A: 1.06 nM⁻¹

Q: And the “Fold Change/nM” value (introns of gene HLA-E, regression over control, 3, 10, 30 nM)?
A: 1.04 nM⁻¹

Q: What about the “Fold Change/nM” value (introns of gene HRB, regression over control, 3, 10, 30 nM) of the same compound?
A: 1.04 nM⁻¹

Q: And the “Fold Change/nM” value (introns of gene HSP90AA1 // HSP90AA2 // HSP90AA6P, regression over control, 3, 10, 30 nM)?
A: 1.06 nM⁻¹

Q: What about the “Fold Change/nM” value (introns of gene HSPA5, regression over control, 3, 10, 30 nM) of the same compound?
A: 1.08 nM⁻¹

Q: And the “Fold Change/nM” value (introns of gene IARS, regression over control, 3, 10, 30 nM)?
A: 1.05 nM⁻¹

Q: And the “Fold Change/nM” value (introns of gene IBRDC3, regression over control, 3, 10, 30 nM)?
A: 1.06 nM⁻¹

Q: And the “Fold Change/nM” value (introns of gene IL1A, regression over control, 3, 10, 30 nM)?
A: 1.07 nM⁻¹

Q: And the “Fold Change/nM” value (introns of gene IL1RN, regression over control, 3, 10, 30 nM)?
A: 1.08 nM⁻¹

Q: And the “Fold Change/nM” value (introns of gene INPP5A, regression over control, 3, 10, 30 nM)?
A: 1.07 nM⁻¹

Q: What about the “Fold Change/nM” value (introns of gene IRAK2, regression over control, 3, 10, 30 nM) of the same compound?
A: 1.06 nM⁻¹

Q: And the “Fold Change/nM” value (introns of gene ITGA5, regression over control, 3, 10, 30 nM)?
A: 1.06 nM⁻¹

Q: And the “Fold Change/nM” value (introns of gene ITGB1, regression over control, 3, 10, 30 nM)?
A: 1.04 nM⁻¹

Q: And the “Fold Change/nM” value (introns of gene JARID2 // C20orf120, regression over control, 3, 10, 30 nM)?
A: 1.04 nM⁻¹

Q: What about the “Fold Change/nM” value (introns of gene JMJD1A, regression over control, 3, 10, 30 nM) of the same compound?
A: 1.04 nM⁻¹

Q: What about the “Fold Change/nM” value (introns of gene JMJD2C, regression over control, 3, 10, 30 nM) of the same compound?
A: 1.04 nM⁻¹

Q: And the “Fold Change/nM” value (introns of gene KIAA0317, regression over control, 3, 10, 30 nM)?
A: 1.04 nM⁻¹

Q: What about the “Fold Change/nM” value (introns of gene KIAA0430, regression over control, 3, 10, 30 nM) of the same compound?
A: 1.04 nM⁻¹

Q: What about the “Fold Change/nM” value (introns of gene KIAA0652, regression over control, 3, 10, 30 nM) of the same compound?
A: 1.04 nM⁻¹

Q: And the “Fold Change/nM” value (introns of gene KIAA0831, regression over control, 3, 10, 30 nM)?
A: 1.04 nM⁻¹

Q: What about the “Fold Change/nM” value (introns of gene KIAA1128, regression over control, 3, 10, 30 nM) of the same compound?
A: 1.04 nM⁻¹

Q: And the “Fold Change/nM” value (introns of gene LBR, regression over control, 3, 10, 30 nM)?
A: 1.04 nM⁻¹

Q: What about the “Fold Change/nM” value (introns of gene LCP1, regression over control, 3, 10, 30 nM) of the same compound?
A: 1.04 nM⁻¹

Q: And the “Fold Change/nM” value (introns of gene LDB1, regression over control, 3, 10, 30 nM)?
A: 1.05 nM⁻¹

Q: And the “Fold Change/nM” value (introns of gene LPXN, regression over control, 3, 10, 30 nM)?
A: 1.06 nM⁻¹

Q: And the “Fold Change/nM” value (introns of gene LRPPRC, regression over control, 3, 10, 30 nM)?
A: 1.04 nM⁻¹

Q: What about the “Fold Change/nM” value (introns of gene LSM14A, regression over control, 3, 10, 30 nM) of the same compound?
A: 1.05 nM⁻¹

Q: What about the “Fold Change/nM” value (introns of gene LYN, regression over control, 3, 10, 30 nM) of the same compound?
A: 1.04 nM⁻¹

Q: What about the “Fold Change/nM” value (introns of gene MARCKS, regression over control, 3, 10, 30 nM) of the same compound?
A: 1.07 nM⁻¹

Q: And the “Fold Change/nM” value (introns of gene MAZ // KIF22, regression over control, 3, 10, 30 nM)?
A: 1.04 nM⁻¹

Q: And the “Fold Change/nM” value (introns of gene MCTP1, regression over control, 3, 10, 30 nM)?
A: 1.05 nM⁻¹

Q: And the “Fold Change/nM” value (introns of gene MGAT4A // MGC52110, regression over control, 3, 10, 30 nM)?
A: 1.07 nM⁻¹

Q: What about the “Fold Change/nM” value (introns of gene MGC40489, regression over control, 3, 10, 30 nM) of the same compound?
A: 1.05 nM⁻¹

Q: What about the “Fold Change/nM” value (introns of gene MKLN1, regression over control, 3, 10, 30 nM) of the same compound?
A: 1.07 nM⁻¹

Q: And the “Fold Change/nM” value (introns of gene MLL5, regression over control, 3, 10, 30 nM)?
A: 1.06 nM⁻¹

Q: What about the “Fold Change/nM” value (introns of gene MPP7, regression over control, 3, 10, 30 nM) of the same compound?
A: 1.07 nM⁻¹

Q: What about the “Fold Change/nM” value (introns of gene MRPS7, regression over control, 3, 10, 30 nM) of the same compound?
A: 1.04 nM⁻¹

Q: And the “Fold Change/nM” value (introns of gene MSC, regression over control, 3, 10, 30 nM)?
A: 1.06 nM⁻¹

Q: And the “Fold Change/nM” value (introns of gene NARG2, regression over control, 3, 10, 30 nM)?
A: 1.04 nM⁻¹

Q: And the “Fold Change/nM” value (introns of gene NBN, regression over control, 3, 10, 30 nM)?
A: 1.06 nM⁻¹

Q: What about the “Fold Change/nM” value (introns of gene NDUFA5, regression over control, 3, 10, 30 nM) of the same compound?
A: 1.04 nM⁻¹

Q: What about the “Fold Change/nM” value (introns of gene NECAP2, regression over control, 3, 10, 30 nM) of the same compound?
A: 1.06 nM⁻¹
